According to patent US7157457B2, “Compounds useful in the treatment of inflammatory diseases” (Glaxo Group Limited, priority 2000, dated 2007):
Some results were stated once for a whole list of compounds, not compound by compound.

Biological target: T1, CCR-3 (Homo sapiens, UniProt P51677)
T1 sequence (P51677 1-355): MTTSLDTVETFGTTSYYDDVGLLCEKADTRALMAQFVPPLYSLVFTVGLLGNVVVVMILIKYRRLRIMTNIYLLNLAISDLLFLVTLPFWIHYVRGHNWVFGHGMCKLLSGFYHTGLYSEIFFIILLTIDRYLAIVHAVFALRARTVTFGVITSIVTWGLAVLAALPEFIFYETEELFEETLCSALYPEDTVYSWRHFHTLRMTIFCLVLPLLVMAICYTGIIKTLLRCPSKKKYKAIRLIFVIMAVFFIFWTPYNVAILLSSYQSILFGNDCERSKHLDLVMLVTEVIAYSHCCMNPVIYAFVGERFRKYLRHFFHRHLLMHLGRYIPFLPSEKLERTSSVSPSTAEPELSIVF
Experiment: CCR-3 competition binding SPA ([125I]eotaxin)
Parameters: expressed in transfected cells
Settings: inhibition of [125I]eotaxin binding to membranes of K562 cells stably expressing CCR-3; mean of at least two experiments
Description: A CCR-3 competition binding SPA (scintillation proximity assay) was used to assess the affinity of novel compounds for CCR-3. Membranes prepared from K562 cells stably expressing CCR-3 (2.5 μg/well) were mixed with 0.25 mg/well wheat-germ agglutinin SPA beads (Amersham) and incubated in binding buffer (HEPES 50 mM, CaCl2 1 mM, MgCl2 5 mM, 0.5% BSA) at 4° C. for 1.5 hr. Following incubation, 20 pM of [^125I] eotaxin (Amersham) and increasing concentrations of compound (1 pM to 30 μM) were added and incubated in a 96 well plate for 2 hr at 22° C. then counted on a Microbeta plate counter. The total assay volume was 100 μl. Competition binding data were analysed by fitting the data with a four parameter logistic equation. Data are presented as the mean pIC50 values (negative logarithm of the concentration of compound which inhibits [^125I]eotaxin binding by 50%) from at least two experiments.

CCR-3 Binding Assay (pIC50), greater than 5.0:
O=C(NCc1c[nH]c2ncccc12)NCC1CN(Cc2ccc(Cl)c(Cl)c2)CCO1 (stereo not drawn) [Example 117, N-{[4-(3,4-dichlorobenzyl)morpholin-2-yl]methyl}-N′-(1H-pyrrolo[2,3-b]pyridin-3-ylmethyl)urea]
O=C(NCC1CN(Cc2ccc(Cl)c(Cl)c2)CCO1)Nc1ccc(OC(F)(F)F)cc1 (stereo not drawn) [Example 35, N-{[4-(3,4-Dichlorobenzyl)morpholin-2-yl]methyl}-N′-[4-(trifluoromethoxy)phenyl]urea]
O=C(NCC1CN(Cc2ccc(Cl)c(Cl)c2)CCO1)NC1CCSCC1 (stereo not drawn) [Example 171, N-{[4-(3,4-dichlorobenzyl)morpholin-2-yl]methyl}-N′-tetrahydro-2H-thiopyran-4-ylurea]
O=C(NCC1CN(CCOc2ccc(F)cc2)CCO1)Nc1ccc(Cl)cc1 (stereo not drawn) [Example 40, N-(4-Chlorophenyl)-N′-({4-[2-(4-fluorophenoxy)ethyl]morpholin-2-yl}methyl)urea]
CNS(=O)(=O)CCNC(=O)NCC1CN(Cc2ccc(Cl)c(Cl)c2)CCO1 (stereo not drawn) [Example 99, 2-{[({[4-(3,4-dichlorobenzyl)morpholin-2-yl]methyl}amino)carbonyl]amino}-N-methylethanesulfonamide]
O=C(NCC1CN(Cc2ccc(Cl)c(Cl)c2)CCO1)Nc1ccc(Oc2ccccc2)cc1 (stereo not drawn) [Example 33, N-{[4-(3,4-Dichlorobenzyl)morpholin-2-yl]methyl}-N′-(4-phenoxyphenyl)urea]
O=C(NCc1cc(-c2ccc(Cl)cc2)no1)NC[C@H]1CN(Cc2ccc(Cl)c(Cl)c2)CCO1 [Example 135, N-{[3-(4-chlorophenyl)isoxazol-5-yl]methyl}-N′-{[(2S)-4-(3,4-dichlorobenzyl)morpholin-2-yl]methyl}urea]
COc1ccc(CN(C)C(=O)NCC2CN(Cc3ccc(Cl)c(Cl)c3)CCO2)cc1 (stereo not drawn) [Example 104, N′-{[4-(3,4-dichlorobenzyl)morpholin-2-yl]methyl}-N-(4-methoxybenzyl)-N-methylurea]
CC(C)(C)S(=O)(=O)CCCNC(=O)NC[C@H]1CN(Cc2ccc(Cl)c(Cl)c2)CCO1 [Example 148, N-[3-(tert-butylsulfonyl)propyl]-N′-{[(2S)-4-(3,4-dichlorobenzyl)morpholin-2-yl]methyl}urea]
CN(C)Cc1ccc(CNC(=O)NCC2CN(Cc3ccc(Cl)c(Cl)c3)CCO2)s1 (stereo not drawn) [Example 118, N-{[4-(3,4-dichlorobenzyl)morpholin-2-yl]methyl}-N′-({5-[(dimethylamino)methyl]thien-2-yl}methyl)urea]
CC(C)Oc1ccc(CNC(=O)NCC2CN(Cc3ccc(Cl)c(Cl)c3)CCO2)cc1 (stereo not drawn) [Example 89, N-{[4-(3,4-dichlorobenzyl)morpholin-2-yl]methyl}-N′-(4-isopropoxybenzyl)urea]
O=C(NCc1nccs1)NC[C@H]1CN(Cc2ccc(Cl)c(Cl)c2)CCO1 [Example 141, N-{[(2S)-4-(3,4-dichlorobenzyl)morpholin-2-yl]methyl}-N′-(1,3-thiazol-2-ylmethyl)urea]
NC(=O)c1cncc(CNC(=O)NCC2CN(Cc3ccc(Cl)c(Cl)c3)CCO2)c1 (stereo not drawn) [Example 111, 5-({[({[4-(3,4-dichlorobenzyl)morpholin-2-yl]methyl}amino)carbonyl]amino}methyl)nicotinamide]
Cc1ccccc1CNC(=O)NCC1CN(Cc2ccc(Cl)c(Cl)c2)CCO1 (stereo not drawn) [Example 6, N-{[4-(3,4-Dichlorobenzyl)morpholin-2-yl]methyl}-N′-(2-methylbenzyl)urea]
CS(=O)(=O)NCCNC(=O)NCC1CN(Cc2ccc(Cl)c(Cl)c2)CCO1 (stereo not drawn) [Example 165, N-(2-{[({[4-(3,4-dichlorobenzyl)morpholin-2-yl]methyl}amino)carbonyl]amino}ethyl)methanesulfonamide]
O=C(NCc1ccc(Cl)c(Cl)c1)NCC1CN(Cc2ccc(Cl)c(Cl)c2)CCO1 (stereo not drawn) [Example 80, N-(3,4-dichlorobenzyl)-N′-{[4-(3,4-dichlorobenzyl)morpholin-2-yl]methyl}urea]
CCCS(=O)(=O)CCCNC(=O)NC[C@H]1CN(Cc2ccc(Cl)c(Cl)c2)CCO1 [Example 147, N-{[(2S)-4-(3,4-dichlorobenzyl)morpholin-2-yl]methyl}-N′-[3-(propylsulfonyl)propyl]urea]
O=C(NCC1CN(CCSc2ccccc2)CCO1)Nc1ccc(Cl)cc1 (stereo not drawn) [Example 28]
O=C(NCC1CN(CC(=O)N2CCc3ccccc32)CCO1)Nc1ccccc1 (stereo not drawn) [Example 9, N-({4-[2-(2,3-Dihydro-1H-indol-1-yl)-2-oxoethyl]morpholin-2-yl}methyl)-N′-phenylurea]
O=C(NCCOc1ccccc1)NC[C@H]1CN(Cc2ccc(Cl)c(Cl)c2)CCO1 [Example 181, N-{[(2S)-4-(3,4-dichlorobenzyl)morpholin-2-yl]methyl}-N′-(2-phenoxyethyl)urea]
Cc1csc(CNC(=O)NCC2CN(Cc3ccc(Cl)c(Cl)c3)CCO2)n1 (stereo not drawn) [Example 109, N-{[4-(3,4-dichlorobenzyl)morpholin-2-yl]methyl}-N′-[(4-methyl-1,3-thiazol-2-yl)methyl]urea]
O=C(NCC1CN(Cc2ccc(Cl)c(Cl)c2)CCO1)N1CCS(=O)(=O)CC1 (stereo not drawn) [Example 175, N{[4-(3,4-dichlorobenzyl)morpholin-2-yl]methyl}thiomorpholine-4-carboxamide 1,1-dioxide]
O=C(NCc1ccccc1OC(F)(F)F)NCC1CN(Cc2ccc(Cl)c(Cl)c2)CCO1 (stereo not drawn) [Example 84, N-{[4-(3,4-dichlorobenzyl)morpholin-2-yl]methyl}-N′-[2-(trifluoromethoxy)benzyl]urea]
CC(NC(=O)NCC1CN(Cc2ccc(Cl)c(Cl)c2)CCO1)c1ccc(F)cc1 (stereo not drawn) [Example 172, N-{[4-(3,4-dichlorobenzyl)morpholin-2-yl]methyl}-N′-[1-(4-fluorophenyl)ethyl]urea]
CC(C)(NC(=O)NCC1CN(Cc2ccc(Cl)c(Cl)c2)CCO1)c1ccccc1 (stereo not drawn) [Example 173, N-{[4-(3,4-dichlorobenzyl)morpholin-2-yl]methyl}-N′-(1-methyl-1-phenylethyl)urea]
CN(C)C(=O)c1cccc(CNC(=O)NCC2CN(Cc3ccc(Cl)c(Cl)c3)CCO2)c1 (stereo not drawn) [Example 128, 3-({[({[4-(3,4-dichlorobenzyl)morpholin-2-yl]methyl}amino)carbonyl]amino}methyl)-N,N-dimethylbenzamide]
O=C(NCc1c[nH]c(=S)[nH]1)NCC1CN(Cc2ccc(Cl)c(Cl)c2)CCO1 (stereo not drawn) [Example 174]
